Numbering of substitutions follows the chain as printed. No constants are given. Whether binding was seen depends on the method and setting. Some results given as binding are weak or reduced against the parent protein; the word gives no strength.
Legend:
Assay in all cases: ELISA, ligand coated on plate
[1] = target: T1, S100A12 (UniProt P80511 1-92, limits assumed)
T1 sequence (looked up): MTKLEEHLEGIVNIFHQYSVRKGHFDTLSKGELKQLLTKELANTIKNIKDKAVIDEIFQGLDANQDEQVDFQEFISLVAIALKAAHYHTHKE

The chains behind the UniProt entries cited, without tags or fusion partners. Residues count along the entry.
UniProt P09429: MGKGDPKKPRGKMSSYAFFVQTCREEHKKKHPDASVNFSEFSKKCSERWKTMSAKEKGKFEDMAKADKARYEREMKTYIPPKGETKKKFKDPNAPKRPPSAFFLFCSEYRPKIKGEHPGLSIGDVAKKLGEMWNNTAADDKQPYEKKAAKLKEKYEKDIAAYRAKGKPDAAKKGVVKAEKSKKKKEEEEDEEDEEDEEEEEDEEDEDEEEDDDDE
UniProt P02768, residues 25-609: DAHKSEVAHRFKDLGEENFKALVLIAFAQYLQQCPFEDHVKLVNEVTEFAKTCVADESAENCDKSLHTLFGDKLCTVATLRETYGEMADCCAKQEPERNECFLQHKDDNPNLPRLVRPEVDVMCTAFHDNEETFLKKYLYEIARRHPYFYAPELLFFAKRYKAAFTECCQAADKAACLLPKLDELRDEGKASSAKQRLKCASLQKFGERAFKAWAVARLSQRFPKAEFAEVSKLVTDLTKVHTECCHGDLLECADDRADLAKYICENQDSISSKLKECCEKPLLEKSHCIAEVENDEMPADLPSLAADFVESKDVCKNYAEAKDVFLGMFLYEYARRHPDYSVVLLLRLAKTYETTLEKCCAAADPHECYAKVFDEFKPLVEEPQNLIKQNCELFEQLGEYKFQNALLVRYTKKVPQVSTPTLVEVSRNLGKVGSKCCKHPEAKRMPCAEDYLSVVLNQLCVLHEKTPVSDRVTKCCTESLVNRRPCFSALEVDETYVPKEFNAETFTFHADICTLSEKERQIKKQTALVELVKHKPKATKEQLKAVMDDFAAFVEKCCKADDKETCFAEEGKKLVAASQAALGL

[2] = target: HMGB1 (amphoterin) (UniProt P09429)
[3] = target: T2, S100A9 (UniProt P06702 1-114, limits assumed)
T2 sequence (looked up): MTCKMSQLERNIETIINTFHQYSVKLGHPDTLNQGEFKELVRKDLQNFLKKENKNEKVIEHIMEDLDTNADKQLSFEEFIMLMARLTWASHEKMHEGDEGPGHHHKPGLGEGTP

[4] = target: CML-HSA (carboxymethylated human serum albumin) (human) (UniProt P02768)
[5] = target: T3, S100A9 (UniProt P06702)
T3 sequence (looked up): T2 sequence (looked up)

Measured: binding

B1: Construct #12: RAGE V-C1-C2-V1stem(M/A)-IgG2 lower hinge-(IgG4CH2-CH3) (Fc fusion)
chain: AQNITARIGEPLVLKCKGAPKKPPQRLEWKLNTGRTEAWKVLSPQGGGPWDSVARVLPNGSLFLPAVGIQDEGIFRCQAMNRNGKETKSNYRVRVYQIPGKPEIVDSASELTAGVPNKVGTCVSEGSYPAGTLSWHLDGKPLVPNEKGVSVKEQTRRHPETGLFTLQSELMVTPARGGDPRPTFSCSFSPGLPRHRALRTAPIQPRVWEPVPLEEVQLVVEPEGGAVAPGGTVTLTCEVPAQPSPQIHWMKDGVPLPLPPSPVLILPEIGPQDQGTYSCVATHSSHGPQESRAVSISIIEPGEEGPTAGEGFDKVREAEDSPQHAVECPPCAPPVAGGPSVFLFPPKPKDTLMISRTPEVTCVVVDVSQEDPEVQFNWYVDGVEVHNAKTKPREEQFNSTYRVVSVLTVLHQDWLNGKEYKCKVSNKGLPSSIEKTISKAKGQPREPQVYTLPPSQEEMTKNQVSLTCLVKGFYPSDIAVEWESNGQPENNYKTTPPVLDSDGSFFLYSRLTVDKSRWQEGNVFSCSVMHEALHNHYTQKSLSLSLGK
notes: also called esRAGE-Fc fusion
not listed: [5]
binds: all other assays above

B2: Construct #16: RAGE V-C1-C2-V1stem(M/A)-IgG2 lower hinge-(IgG4CH2-CH3)-YTE (Fc fusion)
chain: B1 chain with M353Y, S355T, T357E
notes: also called #12 + YTE; esRAGE-Fc fusion
not listed: [3]
binds: all other assays above

Source: US20210188940A1 (BIOAGE LABS, published 2021)
